No constants are given. Whether binding was seen depends on the method and setting. Binding seen in cells or lysates may run through a third protein. Some binding calls cover weakened binding; strength is not graded here. Sequences can lack the tags named with a protein.
Target: PPP2R1A wild type, 3xFlag-tagged (human) (UniProt P30153)
Assay: co-IP; 3xFlag-PPP2R1A or its mutant (bait) and 3xMyc-PPP2R3A (prey) co-transfected in HEK 293T; RIPA lysate (50 mM Tris pH 7.5, 150 mM NaCl, 5 mM EDTA, 1.0% NP-40, 0.25% sodium deoxycholate); anti-FLAG M2 affinity gel overnight at 4°C; blot with anti-FLAG and anti-MYC

The chains behind the UniProt entries cited, without tags or fusion partners.
UniProt P30153: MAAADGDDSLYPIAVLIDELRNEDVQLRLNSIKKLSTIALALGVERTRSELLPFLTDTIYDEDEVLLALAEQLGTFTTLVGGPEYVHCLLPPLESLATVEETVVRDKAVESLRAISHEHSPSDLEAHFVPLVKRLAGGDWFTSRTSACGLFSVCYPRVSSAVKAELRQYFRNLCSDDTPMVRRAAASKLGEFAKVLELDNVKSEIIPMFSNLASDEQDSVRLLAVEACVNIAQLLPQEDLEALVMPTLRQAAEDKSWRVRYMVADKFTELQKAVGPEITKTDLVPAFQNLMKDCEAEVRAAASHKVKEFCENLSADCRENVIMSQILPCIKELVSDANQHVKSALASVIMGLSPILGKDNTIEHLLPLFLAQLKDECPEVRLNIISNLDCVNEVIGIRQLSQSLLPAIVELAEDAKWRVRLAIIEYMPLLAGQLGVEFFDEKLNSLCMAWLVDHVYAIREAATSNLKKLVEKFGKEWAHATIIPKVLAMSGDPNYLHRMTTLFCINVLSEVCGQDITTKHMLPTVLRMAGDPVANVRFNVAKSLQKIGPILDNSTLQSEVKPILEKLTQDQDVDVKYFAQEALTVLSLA

B1: PPP2R3A, 3xMyc-tagged (protein, UniProt Q06190 1-1150)
chain: MAATYRLVVSTVNHYSSVVIDRRFEQAIHYCTGTCHTFTHGIDCIVVHHSVCADLLHIPVSQFKDADLNSMFLPHENGLSSAEGDYPQQAFTGIPRVKRGSTFQNTYNLKDIAGEAISFASGKIKEFSFEKLKNSNHAAYRKGRKVKSDSFNRRSVDLDLLCGHYNNDGNAPSFGLLRSSSVEEKPLSHRNSLDTNLTSMFLQNFSEEDLVTQILEKHKIDNFSSGTDIKMCLDILLKCSEDLKKCTDIIKQCIKKKSGSSISEGSGNDTISSSETVYMNVMTRLASYLKKLPFEFMQSGNNEALDLTELISNMPSLQLTPFSPVFGTEQPPKYEDVVQLSASDSGRFQTIELQNDKPNSRKMDTVQSIPNNSTNSLYNLEVNDPRTLKAVQVQSQSLTMNPLENVSSDDLMETLYIEEESDGKKALDKGQKTENGPSHELLKVNEHRAEFPEHATHLKKCPTPMQNEIGKIFEKSFVNLPKEDCKSKVSKFEEGDQRDFTNSSSQEEIDKLLMDLESFSQKMETSLREPLAKGKNSNFLNSHSQLTGQTLVDLEPKSKVSSPIEKVSPSCLTRIIETNGHKIEEEDRALLLRILESIEDFAQELVECKSSRGSLSQEKEMMQILQETLTTSSQANLSVCRSPVGDKAKDTTSAVLIQQTPEVIKIQNKPEKKPGTPLPPPATSPSSPRPLSPVPHVNNVVNAPLSINIPRFYFPEGLPDTCSNHEQTLSRIETAFMDIEEQKADIYEMGKIAKVCGCPLYWKAPMFRAAGGEKTGFVTAQSFIAMWRKLLNNHHDDASKFICLLAKPNCSSLEQEDFIPLLQDVVDTHPGLTFLKDAPEFHSRYITTVIQRIFYTVNRSWSGKITSTEIRKSNFLQTLALLEEEEDINQITDYFSYEHFYVIYCKFWELDTDHDLYISQADLSRYNDQASSSRIIERIFSGAVTRGKTIQKEGRMSYADFVWFLISEEDKRNPTSIEYWFRCMDVDGDGVLSMYELEYFYEEQCERMEAMGIEPLPFHDLLCQMLDLVKPAVDGKITLRDLKRCRMAHIFYDTFFNLEKYLDHEQRDPFAVQKDVENDGPEPSDWDRFAAEEYETLVAEESAQAQFQEGFEDYETDEPASPSEFGNKSNKILSASLPEKCGKLQSVDEE
binding: binds
